Test results published in the supplement of paper PMC3334620.
Over roughly 33,000 sequences, “E-score (-0.5 to 0.5)” has its median near -0.0034; the highest 2% begin near 0.25. The list shows a part of the results.

Target: T1, Yap3 (UniProt P38749)
T1 sequence: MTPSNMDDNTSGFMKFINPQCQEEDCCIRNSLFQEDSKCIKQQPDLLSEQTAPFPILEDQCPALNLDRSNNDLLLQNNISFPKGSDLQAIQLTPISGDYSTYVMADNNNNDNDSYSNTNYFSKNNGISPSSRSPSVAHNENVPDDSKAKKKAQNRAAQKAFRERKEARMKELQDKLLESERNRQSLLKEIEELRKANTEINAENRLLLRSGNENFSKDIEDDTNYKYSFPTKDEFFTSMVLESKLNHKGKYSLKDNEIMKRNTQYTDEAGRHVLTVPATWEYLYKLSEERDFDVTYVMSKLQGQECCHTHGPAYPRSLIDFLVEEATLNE
Assay: PBM E-score (8-mer binding enrichment) (E-score (-0.5 to 0.5)); higher = stronger / more preferred TF binding
Conditions: protein concentration: 100 nM; construct: GST-full length
Procedure, shortened: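 Each ungapped eight-base word and its reverse complement, pooled, received an E-score from the Universal PBM Analysis Suite. Underlying scans, normalised with masliner, recorded fluorescent anti-GST bound to GST-tagged yeast transcription factors. These were applied at about 100-200 nM to universal all-10-mer Agilent arrays double-stranded by primer extension.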

Sequence	PBM E-score
AAAAACAT	0.159
AGCCCTAT	-0.197
CTTACACC	-0.184
AATAGGTG	-0.0377
ACCCCTAC	-0.151
GTGGTTGA	-0.0186
TGCGGCCA	-0.116
AGATGGAA	-0.0109
AATTTAGT	0.21
CGAGCAGC	0.12
GAGGATCA	-0.0991
AAGGCGTA	-0.0608
CGGTTCGC	-0.184
CCAAATGG	-0.133
AGCCTTGC	-0.106
ACTATGTC	-0.0812
AGTCAGGG	-0.185
ATAGGCTG	0.0796
GCTTCGAC	-0.0385
ACGTAGGG	-0.241
CACGGGAA	-0.0634
CCCCCACC	-0.368
ATACTCTC	0.197
GAGAACCA	0.0914
ACTCTGAG	-0.0751

2 records drawn at random from those above:
Sequence	PBM E-score
ACTCTGAG	-0.0751
CTTACACC	-0.184

(further entries)

Sequence	PBM E-score
CCCCTTTA	-0.247
CGGTCGTC	-0.242
ACCATGGT	-0.192
CCCAGACG	-0.144
GGCGGAAA	-0.0177
AGGCTCAG	-0.187
CCTAGGTA	0.0302
CGGGAAAC	0.0165
ATACCCCC	-0.126
ACTTCATG	-0.109
CACCCGTA	0.0758
AAATTCAT	0.0786
ATCGTCCG	-0.00057
AATCCATG	0.11
ACGCGCCG	-0.0226
AGAGGAGC	-0.172
CCGCGAAC	-0.0464
AACAGTTA	0.12
ATTGCAGA	0.13
CCGTAACC	-0.0335
AGGGCACT	-0.276
GCTACGCC	-0.314
GAGGGAAA	-0.148
ATCTCTTG	-0.00997
CTCCCATA	-0.0713

Sequence	PBM E-score
CCTCATGC	-0.112
CACCCTGG	-0.234
ACAGCCAC	-0.0261
CGCTAGAG	-0.0581
AACGGATC	0.216
CGATTAGC	-0.102
ATCATTCA	0.17
CAAGGGTG	-0.0956
GAGGTGTA	-0.0903
CTACCGTC	-0.0521
CTAGAGAG	-0.139
GGAACGAA	0.149
ACCCCTTA	-0.232
GTGTAAGA	-0.0287
CTTCAGGC	-0.153
ACTTTGCT	0.0198
CGGGTTAC	0.0307
TAAGGTAA	0.231
GCTGCAGC	0.09
GCGGATTA	0.151
AATTCGGC	0.0272
GCCTTTAA	0.0855
GAGAGAGA	-0.133
CGTCATAC	0.173
GCTTCGAA	0.0601

Sequence	PBM E-score
AGACAACT	0.158
CTGCGCGA	-0.0222
ATATGTGG	0.135
AATCGACC	-0.00549
ATGGGGAA	0.102
GTGATCAC	0.00406
AAGTAAGG	0.19
TACTCGAA	-0.0829
AAAGCATC	0.0884
AGTTCCCC	-0.17
AAATCTGG	0.102
AGCTGAAC	-0.125
GGTAAACA	0.141
AGTGAAGC	-0.0889
AAGGGGGC	-0.0945
CGCACAGC	-0.154
CGCGGATC	-0.213
AACGGTAT	0.106
CCCAGTAC	-0.177
CCTGCATA	-0.0619
AGGACTTA	-0.121
AATGGGTA	0.123
GCCCCTCC	-0.243
GTGTCGCA	-0.0188
GCGTTACC	-0.116

Sequence	PBM E-score
CCGCGAGC	-0.16
GGGAGACA	-0.112
AATGTGCC	-0.0237
CGAGTGAC	-0.163
CCCGCGTC	0.00331
TCCTTTAA	-0.0127
GAGTAGCC	-0.159
AGATTGCA	-0.11
CCGGGCAA	-0.194
CGTAGATA	0.0847
ATATAATG	0.2
ACTGTGGG	-0.0714
CACCAGTC	-0.238
ATCGTAGG	-0.0234
GCGACACA	0.0116
CCTAACCA	0.0402
AGAGACCG	-0.152
ATTGTCAC	0.0499
GCCCAATA	0.0672
GGTCGTTA	0.0836
CCCCGCTA	-0.0173
GGGTAGCA	-0.108
TCACCAGA	-0.226
GTGCCACA	-0.0385
ATGTTGCA	0.0661

Sequence	PBM E-score
AAAGGTCA	0.0579
TACAATAA	0.0961
GGGACGAC	-0.162
AGCGACGA	-0.145
TACCATAA	0.118
ACTATCCC	-0.176
CGGGTAAG	-0.0764
CGTTAAAA	-0.059
AAGAGCGC	0.0795
ACCCCCGG	-0.349
GGAACACA	0.023
AAAGCGGA	-0.0859
CACTGCCC	-0.135
AGGCGGCG	-0.215
CATCCGAA	0.0482
CGGCCGTC	-0.156
CTTGGAGC	-0.106
GCACCTCC	-0.276
GCCGTATA	0.141
CATGGAGC	-0.153
CCAAGAAG	-0.0368
CCGCATAA	0.243
ACTATTCG	0.231
CTGACATA	0.0984
CGGCACTA	0.0257

Sequence	PBM E-score
AAATCTTA	0.124
CTTTCGTC	0.01
CTGAGAGC	-0.199
AGAGGTCC	-0.148
ACTATAAC	0.091
CGAACTAC	0.0201
GATTGCAA	0.1
ACAGTAGC	-0.0761
AGATGCGC	0.0107
CGATTCGC	-0.0311
GCCGACGA	0.0586
ACGTAGAC	-0.198
TAATATCA	0.275
CGTAAAGC	-0.171
AGAAAAGC	0.0572
GGCGCACA	0.0136
GACGAGAA	0.0689
CCCGGTAG	-0.115
CTCATCCA	-0.0177
TTGGGAAA	0.223
ATCTTACA	0.175
TACTAGGA	-0.0117

Quoted from the listing:
Value of TACTAGGA under PBM E-score: -0.0117
Value of CGAACTAC under PBM E-score: 0.0201
Value of CTCATCCA under PBM E-score: -0.0177
Value of TTGGGAAA under PBM E-score: 0.223
